US20200299612A1, “HIGH PERFORMING, HIGH IMPACT BLOOM ACCORD” (International Flavors & Fragrances Inc., priority 2016, published 2020)

Test: Experimental velocity of single fragrance ingredients (60 cm divided by time to olfactory detection) from model powder detergent in water
Details: Table 1, Class 1 ingredients, 10 g model powder detergent in 2 liters of water, 25° C.

Compound | EV (Experimental velocity)
Cc1csc(C(C)C)n1 [2-isopropyl-4-methylthiazole] | 9 cm/s
C=C(C)C1CC=C(C)CC1 (centres unmarked) [1-methyl-4-(prop-1-en-2-yl)cyclohex-1-ene] | 11 cm/s and 9 cm/s
CC1CCC(C(C)C)C(=O)C1 (centres unmarked) [5-methyl-2-(1-methylethyl)cyclohexanone] | 9 cm/s
CC1=CCC2CC1C2(C)C (centres unmarked) [2,6,6-trimethylbicyclo[3.1.1]hept-2-ene] | 9 cm/s
CC1(C)C2CC=C(CCC=O)C1C2 (centres unmarked) [6,6-dimethyl 2-norpinene-2-propionaldehyde] | 9 cm/s
CCC=CCCC=CC#N [2,6-nonadienenitrile] | 16 cm/s
CC1=CCC(C=O)C(C)C1 (centres unmarked) [4,6-dimethylcyclohex-3-enecarbaldehyde] | 10 cm/s
CCOC(=O)[C@@H]1C[C@@H]2C=C[C@H]1C2 [(1R,2R,4R)-ethyl bicyclo[2.2.1]hept-5-ene-2-carboxylate] | 10 cm/s

Same assay, conditions: Table 2, Class 2 ingredients, 10 g model powder detergent in 2 liters of water, 25° C.

Compound | EV (Experimental velocity)
CCOC(=O)C(C)C [ethyl isobutyrate] | 5 cm/s
CC1=CCC(/C=C/C(C)(C)C(C)O)C1(C)C (centres unmarked) [(E)-3,3-dimethyl-5-(2,2,3-trimethylcyclopent-3-en-1-yl)pent-4-en-2-ol] | 5 cm/s
C=C(C)C1CC=C(C)CC1 (centres unmarked) [1-methyl-4-(prop-1-en-2-yl)cyclohex-1-ene] | 7 cm/s and 5 cm/s
5-alkyldihydro-2(3H)-furanone | 8 cm/s
CC1(C)[C@@H]2CC[C@@]1(C)[C@H](O)C2 [(1R,2R,4R)-1,7,7-trimethylbicyclo[2.2.1]heptan-2-ol] | 7 cm/s
CC(C)=CCCC(C)C=O (centres unmarked) [2,6-dimethylhept-5-enal] | 8 cm/s
CC1=CCC2CC1C2(C)C (centres unmarked) [2,6,6-trimethylbicyclo[3.1.1]hept-2-ene] | 6 cm/s
CC1=CCC(C(C)CC=O)CC1 (centres unmarked) [3-(4-methylcyclohex-3-en-1-yl)butanal] | 6 cm/s
CC(CC=O)CC(C)(C)C (centres unmarked) [3,5,5-trimethylhexanal] | 5 cm/s
CCOc1cc(C)ccc1O [2-ethoxy-4-methylphenol] | 6 cm/s
CCCCC/C=C/CCC=O [trans 4-decen-1-al] | 8 cm/s
O=CC[C@H]1C[C@H]2C[C@@H]1[C@@H]1CCC[C@H]21 [2-((3aR,4S,5R,7S,7aR)-octahydro-1H-4,7-methanoinden-5-yl)acetaldehyde] | 5 cm/s
Cc1coc2ccc(O)cc12 [3-methylbenzofuran-5-ol] | 5 cm/s
CC(=O)Oc1ccc(C)cc1 [p-tolyl acetate] | 6 cm/s
CC(C)=CCCC(C)CC#N (centres unmarked) [3,7-dimethyloct-6-enenitrile] | 6 cm/s

“And” between values parts separate entries of the source, which are not always exact repeats. Identical values can stand only once.
